Laboratory results: paper PMC3658879
No constants are given. Whether binding was seen depends on the method and setting. Binding seen in cells or lysates may run through a third protein. Some entries that bind do so weakly or less than the wild type. Sequences can lack the tags named with a protein.

T1: podocin, canonical isoform (Pod^canon), FLAG-tagged (human) (UniProt Q9NP85)
T1 sequence: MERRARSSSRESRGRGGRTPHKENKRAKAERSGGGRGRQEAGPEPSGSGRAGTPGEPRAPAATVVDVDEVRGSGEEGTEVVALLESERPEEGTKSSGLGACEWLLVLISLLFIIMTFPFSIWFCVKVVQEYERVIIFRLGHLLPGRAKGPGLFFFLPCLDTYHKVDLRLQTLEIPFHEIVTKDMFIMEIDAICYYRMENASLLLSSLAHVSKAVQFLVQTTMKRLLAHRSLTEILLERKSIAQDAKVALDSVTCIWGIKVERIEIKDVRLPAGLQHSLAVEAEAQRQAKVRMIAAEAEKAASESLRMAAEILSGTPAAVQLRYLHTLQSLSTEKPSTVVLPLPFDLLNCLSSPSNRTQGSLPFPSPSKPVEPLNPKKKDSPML

T2: podocin, short isoform (Pod^short), FLAG-tagged (human) (UniProt Q9NP85)
T2 sequence: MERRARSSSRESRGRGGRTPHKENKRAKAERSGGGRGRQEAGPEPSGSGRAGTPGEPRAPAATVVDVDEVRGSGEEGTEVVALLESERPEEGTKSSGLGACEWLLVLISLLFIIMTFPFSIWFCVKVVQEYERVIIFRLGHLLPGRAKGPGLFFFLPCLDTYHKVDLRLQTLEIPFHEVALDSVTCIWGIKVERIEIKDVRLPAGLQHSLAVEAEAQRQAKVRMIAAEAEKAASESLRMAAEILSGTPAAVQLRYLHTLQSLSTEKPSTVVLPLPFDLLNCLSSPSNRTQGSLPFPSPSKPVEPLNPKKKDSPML


Columns and labels:
[1] = molecular target: T1, podocin, canonical isoform (Pod^canon), FLAG-tagged (human); assay: co-IP; FLAG- and V5-tagged proteins expressed in HEK293T cells; lysis 24 h after transfection in IP buffer (1% Triton X-100, 20 mM Tris pH 7.5, 25 mM NaCl, 50 mM NaF, 15 mM Na4P2O7, 1 mM EDTA); M2 anti-FLAG agarose beads, 1 h at 4°C, three washes; Western blot with V5 antibody
[2] = molecular target: T2, podocin, short isoform (Pod^short), FLAG-tagged (human); assay: as above

Row | binding [1] | binding [2] | Binder
1 | binds | binds | nephrin, V5-tagged (protein, UniProt O60500 23-1241) QLAIPASVPRGFWALPENLTVVEGASVELRCGVSTPGSAVQWAKDGLLLGPDPRIPGFPRYRLEGDPARGEFHLHIEACDLSDDAEYECQVGRSEMGPELVSPRVILSILVPPKLLLLTPEAGTMVTWVAGQEYVVNCVSGDAKPAPDITILLSGQTISDISANVNEGSQQKLFTVEATARVTPRSSDNRQLLVCEASSPALEAPIKASFTVNVLFPPGPPVIEWPGLDEGHVRAGQSLELPCVARGGNPLATLQWLKNGQPVSTAWGTEHTQAVARSVLVMTVRPEDHGAQLSCEAHNSVSAGTQEHGITLQVTFPPSAIIILGSASQTENKNVTLSCVSKSSRPRVLLRWWLGWRQLLPMEETVMDGLHGGHISMSNLTFLARREDNGLTLTCEAFSEAFTKETFKKSLILNVKYPAQKLWIEGPPEGQKLRAGTRVRLVCLAIGGNPEPSLMWYKDSRTVTESRLPQESRRVHLGSVEKSGSTFSRELVLVTGPSDNQAKFTCKAGQLSASTQLAVQFPPTNVTILANASALRPGDALNLTCVSVSSNPPVNLSWDKEGERLEGVAAPPRRAPFKGSAAARSVLLQVSSRDHGQRVTCRAHSAELRETVSSFYRLNVLYRPEFLGEQVLVVTAVEQGEALLPVSVSANPAPEAFNWTFRGYRLSPAGGPRHRILSSGALHLWNVTRADDGLYQLHCQNSEGTAEARLRLDVHYAPTIRALQDPTEVNVGGSVDIVCTVDANPILPGMFNWERLGEDEEDQSLDDMEKISRGPTGRLRIHHAKLAQAGAYQCIVDNGVAPPARRLLRLVVRFAPQVEHPTPLTKVAAAGDSTSSATLHCRARGVPNIVFTWTKNGVPLDLQDPRYTEHTYHQGGVHSSLLTIANVSAAQDYALFTCTATNALGSDQTNIQLVSISRPDPPSGLKVVSLTPHSVGLEWKPGFDGGLPQRFCIRYEALGTPGFHYVDVVPPQATTFTLTGLQPSTRYRVWLLASNALGDSGLADKGTQLPITTPGLHQPSGEPEDQLPTEPPSGPSGLPLLPVLFALGGLLLLSNASCVGGVLWQRRLRRLAEGISEKTEAGSEEDRVRNEYEESQWTGERDTQSSTVSTTEAEPYYRSLRDFSPQLPPTQEEVSYSRGFTGEDEDMAFPGHLYDEVERTYPPSGAWGPLYDEVQMGPWDLHWPEDTYQDPRGIYDQVAGDLDTLEPDSLPFELRGHLV
2 | binds | binds | TRPC6, V5-tagged (protein, UniProt Q9Y210 1-931) MSQSPAFGPRRGSSPRGAAGAAARRNESQDYLLMDSELGEDGCPQAPLPCYGYYPCFRGSDNRLAHRRQTVLREKGRRLANRGPAYMFSDRSTSLSIEEERFLDAAEYGNIPVVRKMLEECHSLNVNCVDYMGQNALQLAVANEHLEITELLLKKENLSRVGDALLLAISKGYVRIVEAILSHPAFAEGKRLATSPSQSELQQDDFYAYDEDGTRFSHDVTPIILAAHCQEYEIVHTLLRKGARIERPHDYFCKCNDCNQKQKHDSFSHSRSRINAYKGLASPAYLSLSSEDPVMTALELSNELAVLANIEKEFKNDYKKLSMQCKDFVVGLLDLCRNTEEVEAILNGDVETLQSGDHGRPNLSRLKLAIKYEVKKFVAHPNCQQQLLSIWYENLSGLRQQTMAVKFLVVLAVAIGLPFLALIYWFAPCSKMGKIMRGPFMKFVAHAASFTIFLGLLVMNAADRFEGTKLLPNETSTDNAKQLFRMKTSCFSWMEMLIISWVIGMIWAECKEIWTQGPKEYLFELWNMLDFGMLAIFAASFIARFMAFWHASKAQSIIDANDTLKDLTKVTLGDNVKYYNLARIKWDPSDPQIISEGLYAIAVVLSFSRIAYILPANESFGPLQISLGRTVKDIFKFMVIFIMVFVAFMIGMFNLYSYYIGAKQNEAFTTVEESFKTLFWAIFGLSEVKSVVINYNHKFIENIGYVLYGVYNVTMVIVLLNMLIAMINSSFQEIEDDADVEWKFARAKLWFSYFEEGRTLPVPFNLVPSPKSLFYLLLKLKKWISELFQGHKKGFQEDAEMNKINEEKKLGILGSHEDLSKLSLDKKQVGHNKQPSIRSSEDFHLNSFNNPPRQYQKIMKRLIKRYVLQAQIDKESDEVNEGELKEIKQDISSLRYELLEEKSQNTEDLAELIRELGEKLSMEPNQEETNR
3 | binds | binds | NEPH1, V5-tagged (protein, UniProt Q96J84 17-757) QGTQTRFSQEPADQTVVAGQRAVLPCVLLNYSGIVQWTKDGLALGMGQGLKAWPRYRVVGSADAGQYNLEITDAELSDDASYECQATEAALRSRRAKLTVLIPPEDTRIDGGPVILLQAGTPHNLTCRAFNAKPAATIIWFRDGTQQEGAVASTELLKDGKRETTVSQLLINPTDLDIGRVFTCRSMNEAIPSGKETSIELDVHHPPTVTLSIEPQTVQEGERVVFTCQATANPEILGYRWAKGGFLIEDAHESRYETNVDYSFFTEPVSCEVHNKVGSTNVSTLVNVHFAPRIVVDPKPTTTDIGSDVTLTCVWVGNPPLTLTWTKKDSNMVLSNSNQLLLKSVTQADAGTYTCRAIVPRIGVAEREVPLYVNGPPIISSEAVQYAVRGDGGKVECFIGSTPPPDRIAWAWKENFLEVGTLERYTVERTNSGSGVLSTLTINNVMEADFQTHYNCTAWNSFGPGTAIIQLEEREVLPVGIIAGATIGASILLIFFFIALVFFLYRRRKGSRKDVTLRKLDIKVETVNREPLTMHSDREDDTASVSTATRVMKAIYSSFKDDVDLKQDLRCDTIDTREEYEMKDPTNGYYNVRAHEDRPSSRAVLYADYRAPGPARFDGRPSSRLSHSSGYAQLNTYSRGPASDYGPEPTPPGPAAPAGTDTTSQLSYENYEKFNSHPFPGAAGYPTYRLGYPQAPPSGLERTPYEAYDPIGKYATATRFSYTSQHSDYGQRFQQRMQTHV
